The list shows only some results of the screen, not a fair sample: it gathers tests that were run many times, whatever their T/C, doses with no T/C, and many T/C values between a quarter and a half above the control. Other doses and runs of a compound stand elsewhere. T/C: endpoint of the treated group in % of that of the vehicle group. Some entries give survivors of the animals treated and no T/C: the source files T/C as zero there, which appears to mark a toxic dose or a test without result, not a measured value. Some doses without a T/C left all or most animals alive at the check, yet need not have been tolerated: the source hardly ever lists a survival T/C far under the control, and the zero likely stands for such cases as well. Survivors were counted at the toxicity check, usually on the fifth day, unless a day is given; later deaths do not show. Schedule codes are those of the source, read here as Q, the interval in days (D) or hours (H), X, the number of doses. Some schedule codes hold Z or #, which are not explained here. Some doses were run more than once; the values are given in rising order. Where survival is the endpoint, this PubChem deposit counts one and a half times the control or more as active, and values a quarter to a half above the control carry no call in these data; other NCI protocols may use other cut-offs.
System: L1210 leukemia ip in BDF1 mice, survival T/C
Assay: NCI In Vivo Anticancer Drug Screen. Data for tumor model L1210 Leukemia (intraperitoneal) in B6D2F1 (BDF1) mice
Details: T/C endpoint: mean survival time, higher T/C = longer survival
[1] = dose: 100.0 mg/kg/injection, schedule: Q01DX009 (ip), vehicle: saline
[2] = dose: 200.0 mg/kg/injection, schedule: Q01DX009 (ip), vehicle: saline
[3] = dose: 200.0 mg/kg/injection, schedule: Q04DX003 (ip), vehicle: saline
[4] = dose: 400.0 mg/kg/injection, schedule: Q04DX003 (ip), vehicle: saline
[5] = dose: 100.0 mg/kg/injection, schedule: Q01DX001 (ip), vehicle: saline with Tween-80

c1ccc2c(c1)C1c3cccc[n+]3C2C2C1CC1C3c4ccccc4C(C12)[n+]1ccccc13 (stereo not drawn)
survivor count (dose: 25.0 mg/kg/injection, schedule: Q01DX009 (ip), vehicle: saline): 1 of 6 and 2 of 6 | survivor count (dose: 50.0 mg/kg/injection, schedule: Q01DX009 (ip), vehicle: saline): 0 of 6 | survivor count [1]: 0 of 6 | survivor count (dose: 100.0 mg/kg/injection, schedule: Q04DX003 (ip), vehicle: saline): 0 of 6 | survivor count [2]: 0 of 6 | survivor count [3]: 0 of 6 | survivor count (dose: 400.0 mg/kg/injection, schedule: Q01DX009 (ip), vehicle: saline): 0 of 6 | survivor count [4]: 0 of 6

Cc1ncc(C(C)(O)c2ccc(Cl)cc2)n1Cc1ccccc1 (stereo not drawn)
survivor count (dose: 100.0 mg/kg/injection, schedule: Q01DX009 (ip), vehicle: Klucel (hydroxypropylcellulose) (HPC)): 3 of 3 | T/C (dose: 100.0 mg/kg/injection, schedule: Q04DX002 (ip), vehicle: Klucel (hydroxypropylcellulose) (HPC)): 91, 95, 97, 101 % of control | T/C (dose: 200.0 mg/kg/injection, schedule: Q04DX002 (ip), vehicle: Klucel (hydroxypropylcellulose) (HPC)): 91, 95, 100, 102 % of control | survivor count (dose: 400.0 mg/kg/injection, schedule: Q01DX009 (ip), vehicle: Klucel (hydroxypropylcellulose) (HPC)): 3 of 3 | T/C (dose: 400.0 mg/kg/injection, schedule: Q04DX002 (ip), vehicle: Klucel (hydroxypropylcellulose) (HPC)): 91, 106, 107, 138 % of control

c1cc[c]([Pb]([S]c2ncnc3c2nc[n]3[Pb]([c]2ccccc2)([c]2ccccc2)[c]2ccccc2)([c]2ccccc2)[c]2ccccc2)cc1.c1cc[c]([Pb]([S]c2ncnc3nc[nH]c23)([c]2ccccc2)[c]2ccccc2)cc1
survivor count (dose: 20.0 mg/kg/injection, schedule: Q01DX001 (ip), vehicle: other): 1 of 6 | survivor count (dose: 40.0 mg/kg/injection, schedule: Q01DX001 (ip), vehicle: other): 0 of 6 | survivor count (dose: 80.0 mg/kg/injection, schedule: Q01DX001 (ip), vehicle: other): 0 of 6 | survivor count (dose: 100.0 mg/kg/injection, schedule: Q01DX001 (ip), vehicle: other): 2 of 6 | survivor count (dose: 200.0 mg/kg/injection, schedule: Q01DX001 (ip), vehicle: other): 0 of 6 | survivor count (dose: 400.0 mg/kg/injection, schedule: Q01DX001 (ip), vehicle: other): 0 of 6

COc1cc2c(cc1OC)CC[N+](C)=C2
survivor count [2]: 0 of 6 | survivor count [3]: 2 of 6 | survivor count [4]: 0 of 6

CN1CCN(CCSC(=O)C(O)(c2ccccc2)C2CCCC2)CC1 (stereo not drawn)
survivor count (dose: 75.0 mg/kg/injection, schedule: Q01DX001 (ip), vehicle: saline): 2 of 6 | survivor count (dose: 300.0 mg/kg/injection, schedule: Q01DX001 (ip), vehicle: saline): 0 of 6

Nc1nc2ncc(CCCNc3ccc(C(=O)NC(CCC(=O)O)C(=O)O)cc3)nc2c(=O)[nH]1 (stereo not drawn)
survivor count (dose: 400.0 mg/kg/injection, schedule: Q01DX001 (ip), vehicle: carboxymethylcellulose (CMC)): 1 of 4

CC(=O)Nc1ccn(C2OC(CO)C(O)C2O)c(=O)n1 (stereo not drawn)
T/C (dose: 75.0 mg/kg/injection, schedule: Q01DX009 (ip), vehicle: saline): 133 % of control | T/C [1]: 131 % of control

CC1(C)N=C(N)N=C(N)N1c1cccc(C(=O)c2ccccc2)c1
survivor count [5]: 1 of 6

Nc1nc(SCc2ccccc2)cc(C(=O)O)n1
survivor count (dose: 100.0 mg/kg/injection, schedule: Q01DX Z (ip), vehicle: methylcellulose (MC)): 6 of 6 | survivor count (dose: 200.0 mg/kg/injection, schedule: Q01DX Z (ip), vehicle: methylcellulose (MC)): 0 of 6

CN1CCC(C#N)(c2ccccn2)CC1
survivor count [5]: 0 of 6 | survivor count (dose: 200.0 mg/kg/injection, schedule: Q01DX001 (ip), vehicle: saline with Tween-80): 0 of 6 | survivor count (dose: 400.0 mg/kg/injection, schedule: Q01DX001 (ip), vehicle: saline with Tween-80): 0 of 6

— PubChem BioAssay AID248 (DTP/NCI, 2004)
